{"source": "patent US20050130203A1", "about": "“Novel GABAB receptor DNA sequences” (Board of Regents, The University of Texas System, priority 1998, published 2005)", "tested_on": "wild-type HEK293 cells"}
{"smiles": "NCCCC(=O)O", "note": "[GABA, γ-amino-butyric acid]", "values": [{"measurement": "inhibition of forskolin-stimulated cAMP synthesis", "result": "did not exhibit"}]}
